One may read the MIC as the lowest concentration that inhibits growth of the organism.

Assay [1] relates to Candida albicans SKF 2270. Kind of assay: Activity against Candida strains, two-fold dilution method. The format is cell-based. The settings on record: SKF2270, 20 h, comparative tests, antibacterial agents. How it is done: (§1) This set of experiments included also one strain each of two other Candida species, Candida tropicalis and Candida kruzei. The M.I.C. were determined by the two-fold dilution method in buffered (0.01 M phosphate buffer, pH 7.4) yeast nitrogen base medium (Difco) supplemented with 1.5 g/liter asparagine in microtiter trays. Inocula were approximately 10^4 colony forming units/ml. Incubation was for 20 h at 30° C. Purpuromycin was dissolved in DMSO and added to the cultures as above.

The test system of assay [2] is Candida albicans ATCC 10231. The description is as above. The settings on record: ATCC10231, 20 h, comparative tests, antibacterial agents. Type of assay: cell-based. How it is done:
as §1

As to `CCC[C@@H]1C[C@@H](C(=O)N[C@@H]([C@H]2O[C@H](SC)[C@H](O)[C@@H](O)[C@H]2O)[C@H](C)Cl)N(C)C1` [clindamycin], the minimum inhibitory concentration (MIC) in assay [1] and in assay [2] was above 128 µg/mL throughout.

Values taken from US5118705A, “Water soluble salts of purpuromycin and pharmaceutical formulations thereof” (Gruppo Lepetit S.p.A., priority 1990, dated 1992).
